Literature values as cited in patent US12037433B2, “(Co)polymers of hydrophobic monomers and methods of making and use thereof” (BASF SE, priority 2018, dated 2024).
Some of these results come from one statement about several compounds together.

Settings: additional hydrophobic monomers

SMILES | solubility in water, measured at 20° C.
C=COC(=O)CCCCCCC(C)(C)C [vinyl neo-undecanoate] | less than 0.001 g/100 g water
C=COC(=O)CCCCCCCC(C)(C)C [vinyl neo-dodecanoate] | less than 0.001 g/100 g water
